The experiment can be described thus: qHTS Multiplex Assay to Identify Dual Action Probes in a Cell Model of Huntington: Cytotoxicity in HTT Striatal Cells. Particulars: STHdhQ111/111 striatal cells, serum-free, ATP luminescence, 24 h. From the text: NIH Chemical Genomics Center [NCGC] NIH Molecular Libraries Probe Production centers Network [MLPCN] MLPCN Grant: MH084839-01A1 Assay Submitter (PI): Wei Zheng NCGC Assay Overview: Huntington's disease is a neurodegenerative disorder caused by a trinucleotide repeat expansion in Exon 1 of the Huntingtin gene. The CAG trinucleotide encodes glutamine and polyglutamine expansions cause cell death in selective areas of the brain. Huntington polyglutamine repeats have the tendency to form aggregates which are observable in later stages of the disease. The exact nature of the aggregates, whether toxic, protective, or insignificant, is unclear. A stable PC12 cell line containing a gene fusion of Exon 1 of the Huntingtin gene linked to GFP under the control of the inducible ecdysone promoter were used as the cell-based model of Huntington Disease for high throughput screening. Exon 1 of the Huntingtin gene contained an expansion of 103 polyglutamines (Q103) which, when expressed, caused cell death and distinct, bright GFP aggregates. The amount of cell death and the size and intensity of GFP aggregates increased over time and induction level. The cell death were quantified with a measurement of ATP content in the cells. A maximal 40-50% of cell death was observed when the Huntington gene was induced in this cell line. We optimized this assay in a homogeneous 1536 well format. A quantitative high throughput screen (qHTS) was conducted on the PC12 cells which were induced to express the toxic fusion construct. Small molecules which prevented cell death were identified by using a luminescent ATP quantification method (Perkin Elmer's ATPlite). This assay examines influence on cytotoxicity induced by serum deprivation in normal and Huntington striatal cells.
Freshlay passaged STHdhQ7/7 cells and mutant STHdhQ111/111 Huntington striatal cells were plated at a density of 20,000 cells/well in complete media and allowed to recover overnight at 33C. The next day, media was replaced with serum containing media or serum free media containing the compound. After 24 hours of incubation at 33 C, cells were assayed for ATP content using the Cell Titer-GLO ATP assay from Promega (cat # G7571). ATP/Toxicity Assay in Serum Free Media (SFM) (96 well plate format) 1. Plate 20,000 cells/well and incubate the cells in complete (w/serum) media overnight 2. Remove media, wash twice with PBS and add the SFM w/ or w/o the compound 3. Incubate at 33C; cells can be incubated at 39C for a more dramatic effect 4. ATP measurements after […] treatment, per kit protocol
Background: In qHTS, concentration-response curves come from the screen itself.

Where [1] appears, read: measured here: Q7/7 cells, at 30 µM.
The mark [2] stands for this setting: measured here: Q7/7 cells, at 60 µM.
The mark [3] stands for this setting: measured here: Q111/111 cells, at 60 µM.
[4] abbreviates: measured here: Q7/7 cells, FBS, at 30 µM.
Setting [5] is: measured here: Q7/7 cells, FBS, at 60 µM.
The mark [6] stands for this setting: measured here: Q111/111 cells, FBS, at 30 µM.
Setting [7] is: measured here: Q111/111 cells, FBS, at 60 µM.

Drawing on PubChem BioAssay AID2713 (National Center for Advancing Translational Sciences (NCATS), 2010), this text covers viability change for three molecules.

The other results are listed elsewhere or left out. Further columns of the screen follow, without active or inactive calls. Compounds called inactive in the main read-out are mostly missing here.

On to `Cc1ccc(-c2csc3ncnc(Sc4nnnn4C)c23)cc1`, for which the viability change runs as follows: under setting [1], -35%; under setting [2], -76%; under setting [3], -98%; under setting [4], 7%; under setting [5], -72%; under setting [6], 9%. The viability change under setting [7] is -88%.
Take `Cn1nnnc1Sc1ncnc2scc(-c3ccc(Cl)cc3)c12`: the viability change runs as follows: under setting [1], -73%; under setting [2], -69%; under setting [3], -97%; under setting [4], -47%; under setting [5], -80%; under setting [6], -81%. The viability change under setting [7] was -97%.
In the case of `Cn1nnnc1Sc1ncnc2scc(-c3ccc(F)cc3)c12`, the viability change runs as follows: under setting [1], 42%; under setting [2], -74%; under setting [3], -99%; under setting [4], 3%; under setting [5], -42%; under setting [6], 0%. In addition, the viability change under setting [7] was -99%.
